Experimental data: PubChem BioAssay AID1259308 (NCATS, 2017)

Assay: 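Candidate targets for better recombinant protein yield in mammalian cells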 (primary screen)
Cell system: human HEK293 embryonic kidney cells stably expressing firefly luciferase (HEK-CMV-Luc2-Hygro)
Knock-down reagent: single siRNA against human genes, 0.8 pmol siRNA per well
Duration: 72 h
Detection: 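Reporter luminescence and viable-cell signal on separate replicate plates, given as percent of non-targeting control and median/MAD z-scores, plus per-cell luciferase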
Reading the numbers: total luciferase, z-score: higher = more reporter protein produced
Active means: 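An siRNA counts as active if its total luciferase robust z-score exceeds 3; genes with two or more such siRNAs out of three were retested with fresh siRNAs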
Meaning of the calls: active = raised luciferase; inactive = no rise
The deposit covers about 59,000 reagents; shown is a part drawn at random. Of all reagents, about 1,510 (2.6%) were called active. 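Calls use total luciferase alone and ignore viability, so some active siRNAs may act by altering cell number.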 A number with no mark means an inactive call. Reagents against one gene are numbered here. Not all columns of the deposit are shown. Reagent sequences are not shown.

total luciferase, z-score, by gene symbol and reagent
GOLGA4: #1 0.115; #2 -0.861; #3 -0.0139
MROH8: #1 0.555; #2 0.603; #3 -2.07
NYAP2: #1 2.41; #2 -0.12; #3 0.561
ATOH8: #1 0.781; #2 0.907; #3 0.399
PHF21A: #1 1.52; #2 0.792; #3 0.918
SFMBT2: #1 0.142; #2 0.331; #3 0.0044
CEACAM4: #1 -0.166; #2 -0.597; #3 2.04
OR6C65: #1 0.866; #2 -0.878; #3 0.326
BCAP29: #1 0.0893; #2 0.154; #3 1.42
COL15A1: #1 -0.0919; #2 0.0645; #3 1.49
FOXP3: #1 -0.146; #2 -1.4; #3 -1
CPEB1: #1 2.17; #2 -0.69; #3 0.333
BNIP1: #1 1.93; #2 -0.308; #3 1.34

2 entries from above, set out differently.
{"gene symbol": "PHF21A", "siRNA no.": 1, "total luciferase, z-score": 1.52}
{"gene symbol": "PHF21A", "siRNA no.": 2, "total luciferase, z-score": 0.792}
